{"sequences": {"note": "Sequences of proteins named here, by UniProt entry; tags and fusion partners are left off. Residues count along the entry.", "UniProt Q9UBS4, residues 23-358": "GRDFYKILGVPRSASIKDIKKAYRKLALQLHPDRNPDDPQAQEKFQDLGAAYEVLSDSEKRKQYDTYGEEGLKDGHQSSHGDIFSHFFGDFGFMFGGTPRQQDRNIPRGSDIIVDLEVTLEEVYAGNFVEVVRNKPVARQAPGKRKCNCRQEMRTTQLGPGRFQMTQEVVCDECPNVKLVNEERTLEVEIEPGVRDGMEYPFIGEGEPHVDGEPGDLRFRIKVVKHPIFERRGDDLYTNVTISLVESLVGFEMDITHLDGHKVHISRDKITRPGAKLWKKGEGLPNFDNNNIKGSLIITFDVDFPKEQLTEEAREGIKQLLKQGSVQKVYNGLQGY", "UniProt P11021, residues 19-654": "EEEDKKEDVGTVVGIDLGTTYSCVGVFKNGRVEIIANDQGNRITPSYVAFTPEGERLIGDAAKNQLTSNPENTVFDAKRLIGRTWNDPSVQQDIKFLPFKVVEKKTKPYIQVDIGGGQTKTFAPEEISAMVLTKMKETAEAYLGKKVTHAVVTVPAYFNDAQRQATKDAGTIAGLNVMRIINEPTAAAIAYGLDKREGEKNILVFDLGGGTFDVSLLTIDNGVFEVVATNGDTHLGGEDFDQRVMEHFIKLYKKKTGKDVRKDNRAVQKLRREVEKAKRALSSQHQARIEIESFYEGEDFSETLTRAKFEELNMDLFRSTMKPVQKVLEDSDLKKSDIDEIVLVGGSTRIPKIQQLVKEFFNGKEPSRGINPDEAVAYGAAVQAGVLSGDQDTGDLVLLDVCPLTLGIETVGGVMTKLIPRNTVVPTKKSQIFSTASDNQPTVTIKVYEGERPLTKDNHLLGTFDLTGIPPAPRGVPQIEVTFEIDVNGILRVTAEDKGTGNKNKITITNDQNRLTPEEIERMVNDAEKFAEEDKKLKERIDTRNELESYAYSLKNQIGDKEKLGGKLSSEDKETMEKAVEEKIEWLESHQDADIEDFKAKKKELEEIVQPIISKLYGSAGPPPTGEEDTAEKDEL"}, "source": "paper PMC7926307", "note": "These are yes or no findings as the source states them, for the method shown. In cells and extracts the contact can be indirect. A yes stands for co-enrichment or nearness to the bait. Other partners may have been found. Tags and fused reporters may be left off the sequences shown."}
{"target": "T1, EDEM3 wild type, HA-tagged (murine EDEM3) (mouse) (UniProt Q2HXL6)", "T1 sequence": "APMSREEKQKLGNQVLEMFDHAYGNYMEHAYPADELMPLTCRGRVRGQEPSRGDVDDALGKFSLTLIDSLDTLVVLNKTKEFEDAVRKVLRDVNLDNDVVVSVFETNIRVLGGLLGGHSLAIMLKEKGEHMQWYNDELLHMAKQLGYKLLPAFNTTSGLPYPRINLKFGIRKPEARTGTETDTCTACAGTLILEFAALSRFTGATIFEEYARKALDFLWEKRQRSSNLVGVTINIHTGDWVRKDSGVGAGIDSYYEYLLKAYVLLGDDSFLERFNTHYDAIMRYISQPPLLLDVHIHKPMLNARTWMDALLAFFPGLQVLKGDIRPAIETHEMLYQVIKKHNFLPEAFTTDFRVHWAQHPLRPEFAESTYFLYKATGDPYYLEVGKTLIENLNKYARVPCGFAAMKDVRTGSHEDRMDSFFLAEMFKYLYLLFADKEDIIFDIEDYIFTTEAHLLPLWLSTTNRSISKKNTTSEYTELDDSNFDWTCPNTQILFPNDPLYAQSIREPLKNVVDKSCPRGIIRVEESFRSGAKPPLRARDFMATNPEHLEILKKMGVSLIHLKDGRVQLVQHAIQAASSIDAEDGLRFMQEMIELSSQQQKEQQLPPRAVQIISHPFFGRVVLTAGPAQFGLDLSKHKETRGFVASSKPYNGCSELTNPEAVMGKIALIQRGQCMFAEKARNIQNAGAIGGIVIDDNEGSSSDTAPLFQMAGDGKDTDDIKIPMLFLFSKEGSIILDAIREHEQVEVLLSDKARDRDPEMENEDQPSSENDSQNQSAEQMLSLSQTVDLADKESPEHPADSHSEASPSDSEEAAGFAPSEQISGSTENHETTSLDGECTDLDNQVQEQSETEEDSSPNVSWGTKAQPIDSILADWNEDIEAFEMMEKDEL", "test": "affinity purification with mass spectrometry; WT EDEM3 expressed in EDEM3-KO cells, digitonin lysis buffer, immunoprecipitated with anti-EDEM3 antibodies; co-precipitated proteins separated by SDS-PAGE, trypsinized, LC-MS/MS; spectral count ratios of sample/control"}
{"molecule": "DNAJB11 (from UniProt Q9UBS4 23-358)", "binding": "binds"}
{"molecule": "HSPA5/BiP (from UniProt P11021 19-654)", "binding": "binds"}
{"molecule": "PRDX4 (protein, UniProt Q13162 38-271) WETEERPRTREEECHFYAGGQVYPGEASRVSVADHSLHLSKAKISKPAPYWEGTAVIDGEFKELKLTDYRGKYLVFFFYPLDFTFVCPTEIIAFGDRLEEFRSINTEVVACSVDSQFTHLAWINTPRRQGGLGPIRIPLLSDLTHQISKDYGVYLEDSGHTLRGLFIIDDKGILRQITLNDLPVGRSVDETLRLVQAFQYTDKHGEVCPAGWKPGSETIIPDPAGKLKYFDKLN", "binding": "binds"}
